According to US20110118181A1:
Results are given in words; binding and its absence hold for the method and conditions named. For part of these data: In cells and extracts the contact can be indirect. Some results given as binding are weak or reduced against the parent protein; the word gives no strength.

The chains behind the UniProt entries cited, without tags or fusion partners. Where a name states a change or a piece, a line headed by the entry shows the natural chain unless it says otherwise. A line that says so, or that is headed by a name, gives the form on record, which may keep a tag or linker. Residues count along the entry.
UniProt Q8NBP7: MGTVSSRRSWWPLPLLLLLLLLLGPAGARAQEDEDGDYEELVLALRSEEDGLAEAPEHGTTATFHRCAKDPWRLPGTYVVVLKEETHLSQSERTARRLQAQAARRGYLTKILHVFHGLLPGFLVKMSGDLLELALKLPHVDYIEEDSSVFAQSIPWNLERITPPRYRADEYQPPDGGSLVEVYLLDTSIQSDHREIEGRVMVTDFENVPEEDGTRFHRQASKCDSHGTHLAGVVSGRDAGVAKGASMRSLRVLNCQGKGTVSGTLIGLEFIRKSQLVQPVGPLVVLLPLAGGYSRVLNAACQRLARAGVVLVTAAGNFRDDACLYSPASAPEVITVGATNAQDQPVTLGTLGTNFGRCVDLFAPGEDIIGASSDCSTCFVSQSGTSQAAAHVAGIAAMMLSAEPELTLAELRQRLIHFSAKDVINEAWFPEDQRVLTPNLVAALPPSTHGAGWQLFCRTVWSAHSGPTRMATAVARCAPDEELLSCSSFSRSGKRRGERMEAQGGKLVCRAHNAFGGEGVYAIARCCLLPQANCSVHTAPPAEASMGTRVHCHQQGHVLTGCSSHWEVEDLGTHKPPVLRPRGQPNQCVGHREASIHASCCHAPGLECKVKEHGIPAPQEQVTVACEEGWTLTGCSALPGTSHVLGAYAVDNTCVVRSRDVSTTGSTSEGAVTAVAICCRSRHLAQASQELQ
CHRD-V5 (C-terminal Cys-His-rich domain of PCSK9, V5-tagged): residues 455-692 of Q8NBP7

Tests used:
[1] = biological target: PCSK9-V5 (full-length human PCSK9 with C-terminal V5 tag) (human) (UniProt Q8NBP7); experiment: poly-histidine pull-down, AnxA2-(His)6 on cobalt chelate beads
[2] = biological target: purified PCSK9-(His)6 (UniProt Q8NBP7); experiment: immunofluorescence of cell surface PCSK9 on CHO-K1 cells overexpressing LDLR, competition
[3] = biological target: PCSK9-V5 (full-length human PCSK9 with C-terminal V5 tag) (human) (UniProt Q8NBP7); experiment: poly-histidine pull-down
[4] = biological target: CHRD-V5 (C-terminal Cys-His-rich domain of PCSK9, V5-tagged) (human) (UniProt Q8NBP7); experiment: summary sentence to FIG. 4E (native forms)
[5] = biological target: purified AnxA2-(His)6 (UniProt P07355); experiment: Far Western blot of purified AnxA2-(His)6
[6] = biological target: AnxA2-HA (full-length human AnxA2 with C-terminal HA epitope) (human) (UniProt P07355); experiment: co-immunoprecipitation with anti-V5; co-expressed p11 did not interfere

binding [1]	binding [2]	binding [3]	binding [4]	binding [5]	binding [6]	Substance
binds	binds	binds	binds	–	–	purified AnxA2-(His)6 (from UniProt P07355 1-339)
–	–	–	–	binds	binds	PCSK9-V5 (full-length human PCSK9 with C-terminal V5 tag) (from UniProt Q8NBP7 31-692) (enzyme)
